Measurements from the supplement of paper PMC5949888.
Most values lie at the floor of the assay. Slopes are relative: functional sequences can read slightly below zero.

Each substance was assayed on Saccharomyces cerevisiae PS128 hsf1 delta, HSF1(1-493) fusion (assay: growth estimate (transactivation domain function in HSF1 fusion, heat-shock survival) (a.u. (slope of normalised read count over time)); higher = stronger growth at 37°C, i.e. more transactivation activity). Conditions: library: random library.

Row | Substance | growth estimate
1 | RRGGSEALRHDRHRGGLVSR | < -0.25
2 | AGSKVMAGTRAQHSPTCVDV | < -0.25
3 | PFSNVRTRPGAKATSVHHWG | < -0.25
4 | ARHERG | -0.243
5 | SLRVRLGTVSSVAYTDNPTL | < -0.25
6 | RFTIRLCRRAWGATRAVPFT | < -0.25
7 | LRECGDGRKSIFSIFELVVV | < -0.25
8 | PILAA | < -0.25
9 | PWVVAD | < -0.25
10 | IRFFRTQRFDSTNLGEGGSR | < -0.25
11 | WYKPDVQV | < -0.25
12 | DRARFCREYYGSEMKHLAPV | < -0.25
13 | YMSSAAWILGRCPVAVAVLQ | < -0.25
14 | LIPGA | < -0.25
15 | HWKPEVSASAPLGEVNDT | < -0.25
16 | GDEW | < -0.25
17 | HRPARNRGPLPRYLT | < -0.25
18 | FKRLVLRRSRVGGRQ | < -0.25
19 | LSTGRYAKVWVLCGELSVTS | < -0.25
20 | GVMRYTPRVGLITS | < -0.25
21 | SGSEGYGSCAF | < -0.25
22 | FPRSRCI | < -0.25
23 | KIIEGCTDPRVEADPAVNVS | < -0.25
24 | KAEGASGL | < -0.25
25 | IGPCEPAIQAISRS | < -0.25
26 | DALVLVLVPSD | < -0.25

Single entries from above:
Entry of IRFFRTQRFDSTNLGEGGSR under growth estimate: < -0.25
Entry of GDEW under growth estimate: < -0.25

Later entries:

Row | Substance | growth estimate
27 | DILCYGSMEEMASNSPNCIY | < -0.25
28 | GYAAWPSEMMVLLLLQNRTR | < -0.25
29 | GTSE | -0.245
30 | FTASRG | < -0.25
31 | RRGRRSAELLCGTRNAGVIG | < -0.25
32 | CLLNEKAQFK | < -0.25
33 | LLRGDLENRDTALTEDISVT | < -0.25
34 | TGTKGPDVRVDIHGSYTSES | < -0.25
35 | AMTGSSRLVIHR | < -0.25
36 | FQEPAWS | 0.0112
37 | RRITIIELGRR | < -0.25
38 | WRCIPS | -0.208
39 | SWDVGVSP | < -0.25
40 | VVLRHNPLFLALNALRERH | < -0.25
41 | VSPGRALCQIALVELIPDNT | < -0.25
42 | VDLRRVA | < -0.25
43 | NPWSTREKGCQNFCQSLRRG | < -0.25
44 | EWPVLGRAQ | < -0.25
45 | RAVHLREVSCPLILVPHGAI | < -0.25
46 | RPLHAGPP | < -0.25
47 | AGSVRQLRASGHTGRRALPP | < -0.25
48 | EGWV | < -0.25
49 | SVDYTHFEVHHGLKVNRASR | < -0.25
50 | GWG | < -0.25
51 | TPF | < -0.25
52 | GRQELLVCQNRWD | < -0.25

Row | Substance | growth estimate
53 | EYIRSAPAFR | < -0.25
54 | ILPCYRRRKMSWSHSLIRHR | < -0.25
55 | SCYIVMVGKIKWLSLRLTNY | < -0.25
56 | SPHTPDRRS | < -0.25
57 | YRPKMWPAYT | < -0.25
58 | FTVKRRRLLTK | < -0.25
59 | NGIDYVLVLAAPEET | < -0.25
60 | WVQGYLGRDKSCKAEGGV | < -0.25
61 | KPKGSPIGYSCSHTEAI | < -0.25
62 | LWNGIGQLTFGLQ | -0.25
63 | VPVSPYSWHLLR | -0.219
64 | RWHVMGLG | < -0.25
65 | LVRLSLAR | < -0.25
66 | KVYHRMITSFLC | < -0.25
67 | NALLPKRVSLS | < -0.25
68 | DRVTHMAE | -0.229
69 | IPIAY | < -0.25
70 | NRLVVLTTTSRFSPKGRLHA | < -0.25
71 | QFIEFTIITHRNLNDSTNIC | < -0.25
72 | KEVDSAIGV | < -0.25
73 | WGPQLQCVIPVWRTIR | < -0.25
74 | SSFSATSN | < -0.25
75 | KLYISAQASMLSSHFRRSSQ | < -0.25
76 | AVRNVFNVRAVGTPARQCPK | < -0.25
77 | ASVISDGAGELGQQLACF | < -0.25
78 | LHLGAGSFVLESLT | -0.178

Row | Substance | growth estimate
79 | KVE | < -0.25
80 | ISL | < -0.25
81 | VLRQYASQEGPAFTSSPNST | < -0.25
82 | HRIRA | < -0.25
83 | SILGVRARELGRAEGTGFLR | < -0.25
84 | RSYRTLVKGNGGPLGT | < -0.25
85 | PRASYQVLALVSAL | < -0.25
86 | AKLAF | < -0.25
87 | ALCPLSENRSGGYLGLTSSP | < -0.25
88 | ATFHSRSRN | < -0.25
89 | VVRSWSPYQCRTFCGPVRPF | < -0.25
90 | DSQWGDSDSIPLPSRCTETI | < -0.25
91 | GDW | < -0.25
92 | CKPRIPPASVILTVCQLGCV | < -0.25
93 | SGRSNVSRWNLVASQRWSEP | < -0.25
94 | GGSEGKDGA | < -0.25
95 | SVTPPLARPRQL | < -0.25
96 | QSGCFGRSSMHFTGCFYENL | < -0.25
97 | SQCRNSPGRSLLGKRQVIMR | < -0.25
98 | LQIFRYDDNNPRFPSSHRLP | < -0.25
99 | YRIWDRDWDSSRDLMKHDHS | < -0.25
100 | EVDGPRQFNLG | < -0.25
101 | AMDMRSTIYNLILTVASCKC | < -0.25
102 | GTNASLAQVQMLGITWVRYQ | < -0.25
103 | MGIEVTTVLDIPQSLC | < -0.25
104 | DSCLTVAGS | < -0.25

2 records picked at random from those above:
Row | Substance | growth estimate
70 | NRLVVLTTTSRFSPKGRLHA | < -0.25
53 | EYIRSAPAFR | < -0.25

(next part)

Row | Substance | growth estimate
105 | LNSPGDRCKEGGQ | < -0.25
106 | LCSFFTHFAHRPFTAGRK | < -0.25
107 | APRKVSRRPSKDYPVDGGSI | < -0.25
108 | EVTVT | < -0.25
109 | HGKKRQPTRKPG | < -0.25
110 | CTGKRRERRGEPAFK | < -0.25
111 | KYVGVGGPGEETADSGVRFF | -0.243
112 | STRGRGEKCVIRWNIRISTN | < -0.25
113 | MYWYWRCNYRIWRVTTINVA | < -0.25
114 | LYKRCRIEREAHALNSSLYL | -0.25
115 | SRFCTVRCRVSCKYKHWLSI | < -0.25
116 | GEAIRLPTQRFSISIEMRYS | < -0.25
117 | SSSAISN | < -0.25
118 | SSVACADR | < -0.25
119 | RWNGYVASYY | < -0.25
120 | SMTIVSLRVANRPTTLICAT | < -0.25
121 | QARRQ | < -0.25
122 | NVRTVQAM | < -0.25
123 | LRIELAVGGWECFWQHTECG | < -0.25
124 | TRTWTVCVVSILGVRFRPQI | < -0.25
125 | FDFTICVSHQLWEIMPMCRT | < -0.25
126 | VVTS | < -0.25
127 | GLGERHR | < -0.25
128 | RAVIMAYIWASSLSLLRISA | < -0.25
129 | PVEPIFCVNDLHQGPEASEA | < -0.25
130 | LRGQWSFDYYLRMIGRPERS | < -0.25

Row | Substance | growth estimate
131 | QCSMFLMDALQIAILYPAED | < -0.25
132 | TVTGIPSS | < -0.25
133 | DELFEGWDIH | < -0.25
134 | YSPQIIYKGLDPESQR | < -0.25
135 | DRMAMPVCS | -0.112
136 | RYRVGLRT | < -0.25
137 | WIQRPSRVLGDGVCGTSTIG | < -0.25
138 | RYDMLGAGPRTKSPGSGSTR | < -0.25
139 | VRPRRIMPCKWTS | < -0.25
140 | FPVRCDIQYVRRGSALRARM | < -0.25
141 | GSF | < -0.25
142 | AKLLTCCKGVSRLNSILALL | < -0.25
143 | ILGQAFAHPSVRLNSVFPAG | < -0.25
144 | KPSRHSSYGTLESAPAPGER | < -0.25
145 | SNGVPILYSAF | < -0.25
146 | QNE | < -0.25
147 | RAESQASGIRAVADASVVTR | < -0.25
148 | SGPRGFGENRYHMLVTGDDR | < -0.25
149 | GPAMQVLLLTHS | < -0.25
150 | RGSQIRAR | < -0.25
151 | TMYKGHAMGSCAV | < -0.25
152 | SGFPFDPLSFSIR | < -0.25
153 | TLVIASHARICAYTSDWNGG | -0.175
154 | AGFSRSPRVLD | < -0.25
155 | ALC | < -0.25
156 | AYGIQLGYNRGQFQSDYSLE | 9.96

Reprinted, nos. 142 to 148
Row | Substance | growth estimate
142 | AKLLTCCKGVSRLNSILALL | < -0.25
143 | ILGQAFAHPSVRLNSVFPAG | < -0.25
144 | KPSRHSSYGTLESAPAPGER | < -0.25
145 | SNGVPILYSAF | < -0.25
146 | QNE | < -0.25
147 | RAESQASGIRAVADASVVTR | < -0.25
148 | SGPRGFGENRYHMLVTGDDR | < -0.25

Continued.

Row | Substance | growth estimate
157 | RRRRFRFGRRRQLRHMRVGI | < -0.25
158 | FQVRVSIPL | < -0.25
159 | LLAGHRVKSHPKSRLLSEGG | < -0.25
160 | GSI | < -0.25
161 | GGESPTSRRLTSTVNVLPI | < -0.25
162 | SLRHLDTLVVARAAVGIPKN | < -0.25
163 | LMKGKRAATPRVTV | < -0.25
164 | VAAAFYGGFPIGTEACTGVG | < -0.25
165 | GLWCFA | -0.248
166 | GHCGGLVYSYVCSCIGGIRE | < -0.25
167 | VGVTGRLAREFPSGPL | < -0.25
168 | TLRGHCFPVLIRTRCLFGAA | < -0.25
169 | VGS | < -0.25
170 | VQRVTI | -0.218
171 | AQSNRVMISVP | < -0.25
172 | EIHGHEAYPRVSPFYFWPWS | < -0.25
173 | WEHCPGQ | < -0.25
174 | VATGLGGRSQVWREPLITGK | < -0.25
175 | VGMTEAKVLLCSMYKGVLAG | < -0.25
176 | RRKFSVKRTALTGGGRPLFE | < -0.25
177 | LTPWC | < -0.25
178 | SVFIREDKGLRERYEGRGST | < -0.25
179 | TMKRCYRIL | < -0.25
180 | RSLAWREPWKHVSLVLSPPG | < -0.25
181 | MPHMRALA | < -0.25
182 | SGDRRSHFPGFVLVNLGQRA | < -0.25

Row | Substance | growth estimate
183 | YPTTKFALLRHKLRDGRVRA | < -0.25
184 | KTNRHEGQ | < -0.25
185 | TASWHRVWNDVIVHSTREVQ | < -0.25
186 | RRSLVTYVTRSSKV | < -0.25
187 | VIRGMFRRYVFSTTTT | < -0.25
188 | TGVQCGTSLGSA | < -0.25
189 | RFIVGAARLWVTSFLN | < -0.25
190 | WPKSPAGPERLP | < -0.25
191 | RVPDTPRVLRTT | < -0.25
192 | GWVETSHGSSVPMITPH | < -0.25
193 | VRPLDGESPAGYGRYKPILF | < -0.25
194 | LANDRRC | < -0.25
195 | GICKHHGRAETHKH | < -0.25
196 | ARRATFGVGFQPSVTMCDHN | < -0.25
197 | SKCPLFQSYVLSGVRTGGRV | < -0.25
198 | GECRKYLSHAN | < -0.25
199 | LPPLRREVTTPSLRASGRPI | < -0.25
200 | NRR | < -0.25
201 | GCGKTGDGSRLNSCCGVPLS | < -0.25
202 | DIHTPLGGTTHIKV | < -0.25
